Source: PubChem BioAssay AID2685 (National Center for Advancing Translational Sciences (NCATS), 2010)
The other results are listed elsewhere or left out. Further columns of the screen follow, without active or inactive calls. Compounds called inactive in the main read-out are mostly missing here. The note in brackets gives the kind of curve behind each potency; many fits are weak.

Experiment: qHTS Assay for Lipid Storage Modulators in Drosophila S3 Cells;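 on cell number change: cells counted by Cell Tracker Red CMTPX staining in the red channel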
Settings: BODIPY lipid droplet fluorescence, 18-24 h; for cell number change: measured here: cell count max response, cells fed with added oleic acid
Summary of the method: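 Drosophila S3 cells got compounds at several concentrations plus oleic acid (400 uM solution). Laser-scanning cytometry with 488 nm excitation read lipid droplets at 500-530 nm and cells at 575-640 nm. Percent activity was relative to 20 uM Triacsin C.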

[1] = measured here: cell number channel AC50, cells fed with added oleic acid
[2] = measured here: lipid fluorescence (Fed channel) AC50, cells fed with added oleic acid

Row | Compound | cell number change [%] | AC50 [1] | AC50 [2]
1 | COc1ccc(OC)c(-c2nc(C(=O)NCC3CCCO3)cc3c2[nH]c2ccccc23)c1 (stereo not given) | -30.7 | 8.2 µM [falling, partial curve, poor fit] | 0.82 µM [rising, single point]
2 | CCc1ccc2c(c1)C(O)(CC(=O)c1cccs1)C(=O)N2 (stereo not given) | 6.38 |  | 2.91 µM [rising, single point]
3 | COc1ccc([N+](=O)[O-])cc1NC(=O)c1ccc(Br)s1 | 28.4 | 1.16 µM [rising, full curve, poor fit] | 0.651 µM [rising, full curve]
4 | COCCNC(=O)C1=C(N)C(C(=O)Nc2ccc(C)c(S(=O)(=O)N3CCCCC3)c2)SC1=Nc1ccc(C)cc1C (stereo not given) |  | 0.184 µM [rising, full curve, poor fit] | 
5 | Cc1cc(N2CCC(C)CC2)nc(NCc2ccccc2)n1 | -45.3 | 20.6 µM [falling, single point] | 4.61 µM [falling, partial curve, poor fit]
6 | COc1cc(C#N)ccc1OC(=O)c1cccc(S(=O)(=O)N2CCN(C)CC2)c1 | -99.6 | 29.1 µM [falling, single point] | 20.6 µM [falling, single point]
7 | CCC(=O)N1CCc2cc(Br)cc(S(=O)(=O)N3CCC(C(=O)NC(C)(C)C)CC3)c21 | -2.86 |  | 6.51 µM [rising, partial curve]
8 | O=c1c2cc(NC(=S)N3CCCCC3)ccc2nc2n1CCCCC2 |  | 1.64 µM [rising, partial curve, poor fit] | 
9 | Cc1ccc(C(=O)c2coc3ccc(OCC(=O)O)cc23)cc1 | -0.391 |  | 
10 | CC(=O)C1=C(C)NC(=O)CC1c1ccccc1Cl (stereo not given) | -7.62 |  | 
11 | COc1ccccc1OCC(=O)N/N=C/c1c(O)ccc2ccccc12 | -20.2 |  | 6.51 µM [rising, single point]
12 | COc1ccccc1NC(=O)CSc1nnnn1-c1ccc2c(c1)OCO2 | 188 | 1.64 µM [rising, full curve] | 1.84 µM [rising, full curve]
13 | O=C(OC1CCOC1=O)C1CCN(S(=O)(=O)c2ccc(Cl)c(C(F)(F)F)c2)CC1 (stereo not given) | 100 | 23.1 µM [rising, single point] | 
14 | CCN1CCN(C(=O)C(=O)c2c(C)[nH]c3ccccc23)CC1 | 44.7 | 0.00461 µM [rising, full curve, poor fit] | 0.00461 µM [rising, full curve, poor fit]
15 | O=S(=O)(c1ccccc1)c1nc(Nc2ccccc2N2CCOCC2)sc1Cl | -12.2 |  | 0.13 µM [rising, full curve, poor fit]
16 | CCCc1cc(=O)n2[nH]c(-c3cccc(Br)c3)cc2n1 | -41.5 | 20.6 µM [falling, single point] | 10.3 µM [falling, partial curve]
17 | CCOC(=O)c1c(S(=O)(=O)N2CCN(C3CCCCC3)CC2)c(C)n(C)c1C | 5.77 |  | 
18 | Cc1ccc(N2C(=O)C3C4C=CC(CNC(=S)Nc5cccc(Cl)c5)(O4)C3C2=O)cc1 (stereo not given) | -0.247 |  | 2.59 µM [rising, single point]
19 | CC(=O)Nc1ccc2c(c1)nc(C)n2-c1ccccc1 | -4.99 |  | 11.6 µM [rising, partial curve]
20 | Cc1ccc(CNC(=O)COC(=O)c2cnc(C)cn2)cc1 | -35 | 0.651 µM [falling, full curve] | 0.517 µM [falling, single point]

Row | Compound | cell number change [%] | AC50 [1] | AC50 [2]
21 | Cn1cc(S(=O)(=O)Nc2ccc(Br)cc2F)c(=O)n(C)c1=O |  |  | 10.3 µM [rising, single point]
22 | CCCCNC(=O)c1c(C)cc(=O)oc1C | -174 | 29.1 µM [falling, partial curve] | 
23 | C[n+]1cccc(C2C(C#N)=C(N)Oc3c2ccc2ccccc32)c1 (stereo not given) | 3.42 |  | 
24 | O=c1c2ccccc2nc2ccc(N3CCOCC3)nn12 | -24.7 |  | 23.1 µM [falling, single point]
25 | CC(C)CN(C(=O)CSc1nc2ccccc2o1)c1c(N)n(Cc2ccccc2)c(=O)[nH]c1=O | -24.8 |  | 13 µM [falling, partial curve, poor fit]
26 | COc1cc(NC(=O)c2cccs2)c(C(=O)OCC(=O)NCc2ccco2)cc1OC | -71.3 | 29.1 µM [falling, single point] | 
27 | CCCCCc1ccc(OCCC[n+]2ccccc2)c(CCCCC)c1 | -70 | 29.1 µM [falling, single point] | 11.6 µM [falling, partial curve]
28 | CCN(CC)S(=O)(=O)c1ccc(N2CCOCC2)c(NC(=O)CNCCc2ccccc2)c1 | 28.4 |  | 1.46 µM [rising, partial curve, poor fit]
29 | Cc1cc(=O)oc2c3c(cc(OCC(=O)N[C@@H](Cc4ccccc4)C(=O)O)c12)OC(C)(C)CC3 | 32 | 11.6 µM [rising, partial curve, poor fit] | 
30 | O=C(c1ccccc1)c1cnc(Nc2ccc(Cl)c(Cl)c2)s1 | 22.7 |  | 8.2 µM [rising, partial curve, poor fit]
31 | COc1ccccc1CNC(=O)CSC1=NCCS1 |  | 0.184 µM [rising, full curve] | 
32 | O=C1CCC(C(=O)NCc2ccc3c(c2)OCO3)N1 (stereo not given) | -9.33 |  | 20.6 µM [falling, single point]
33 | O=C(Nc1sc2c(c1C(=O)O)CCC2)c1ccccc1Cl | 6.2 |  | 29.1 µM [rising, single point]
34 | O=C(Nc1nc2ccc(F)cc2s1)C1CCN(S(=O)(=O)c2cc([N+](=O)[O-])ccc2Cl)CC1 | -28 |  | 4.11 µM [falling, single point]
35 | COc1cc(OC)c(C(=O)Nc2ccc(S(=O)(=O)N3CCCCC3)cc2)cc1OC |  |  | 0.326 µM [falling, full curve]
36 | CCn1c(SCc2ccc(C(=O)Nc3cc(C)cc(C)c3)cc2)nnc1-c1ccncc1 | 15.7 | 0.146 µM [rising, full curve, poor fit] | 0.411 µM [rising, full curve]
37 | CN(CCc1ccccc1)C(=O)CCc1nnc(Cc2ccc3c(c2)OCO3)o1 | 22.8 | 0.00517 µM [rising, full curve, poor fit] | 
38 | Cc1[nH]c(=O)c(C(=O)c2ccccc2O)cc1C(=O)O | -29.6 |  | 
39 | Cc1c(CCC(=O)O)c(=O)oc2cc3occ(-c4ccc(Br)cc4)c3cc12 | -7.04 | 0.291 µM [rising, partial curve, poor fit] | 
40 | CSCCC(NC(=O)COc1ccccc1)C(=O)OCCOc1ccc(C)cc1 (stereo not given) | 5.76 |  | 2.59 µM [rising, single point]

Some of these compounds in order of molecular weight, largest number first.
Row | Compound | cell number change [%] | AC50 [1] | AC50 [2]
25 | CC(C)CN(C(=O)CSc1nc2ccccc2o1)c1c(N)n(Cc2ccccc2)c(=O)[nH]c1=O | -24.8 |  | 13 µM [falling, partial curve, poor fit]
28 | CCN(CC)S(=O)(=O)c1ccc(N2CCOCC2)c(NC(=O)CNCCc2ccccc2)c1 | 28.4 |  | 1.46 µM [rising, partial curve, poor fit]
29 | Cc1cc(=O)oc2c3c(cc(OCC(=O)N[C@@H](Cc4ccccc4)C(=O)O)c12)OC(C)(C)CC3 | 32 | 11.6 µM [rising, partial curve, poor fit] | 
26 | COc1cc(NC(=O)c2cccs2)c(C(=O)OCC(=O)NCc2ccco2)cc1OC | -71.3 | 29.1 µM [falling, single point] | 
35 | COc1cc(OC)c(C(=O)Nc2ccc(S(=O)(=O)N3CCCCC3)cc2)cc1OC |  |  | 0.326 µM [falling, full curve]
39 | Cc1c(CCC(=O)O)c(=O)oc2cc3occ(-c4ccc(Br)cc4)c3cc12 | -7.04 | 0.291 µM [rising, partial curve, poor fit] | 
40 | CSCCC(NC(=O)COc1ccccc1)C(=O)OCCOc1ccc(C)cc1 (stereo not given) | 5.76 |  | 2.59 µM [rising, single point]
37 | CN(CCc1ccccc1)C(=O)CCc1nnc(Cc2ccc3c(c2)OCO3)o1 | 22.8 | 0.00517 µM [rising, full curve, poor fit] | 
21 | Cn1cc(S(=O)(=O)Nc2ccc(Br)cc2F)c(=O)n(C)c1=O |  |  | 10.3 µM [rising, single point]
27 | CCCCCc1ccc(OCCC[n+]2ccccc2)c(CCCCC)c1 | -70 | 29.1 µM [falling, single point] | 11.6 µM [falling, partial curve]
30 | O=C(c1ccccc1)c1cnc(Nc2ccc(Cl)c(Cl)c2)s1 | 22.7 |  | 8.2 µM [rising, partial curve, poor fit]
23 | C[n+]1cccc(C2C(C#N)=C(N)Oc3c2ccc2ccccc32)c1 (stereo not given) | 3.42 |  | 
31 | COc1ccccc1CNC(=O)CSC1=NCCS1 |  | 0.184 µM [rising, full curve] | 
24 | O=c1c2ccccc2nc2ccc(N3CCOCC3)nn12 | -24.7 |  | 23.1 µM [falling, single point]
38 | Cc1[nH]c(=O)c(C(=O)c2ccccc2O)cc1C(=O)O | -29.6 |  | 
32 | O=C1CCC(C(=O)NCc2ccc3c(c2)OCO3)N1 (stereo not given) | -9.33 |  | 20.6 µM [falling, single point]

Following part

Row | Compound | cell number change [%] | AC50 [1] | AC50 [2]
41 | COc1ccc2nc(SCc3cccnc3)c(C#N)cc2c1 | -18.5 |  | 
42 | COc1cc(/C=C2\C(=O)ON=C2c2ccccc2)cc(OC)c1OC | 55.9 |  | 
43 | CCc1nnc(NC(=O)CCC(=O)Nc2ccc(OC)cc2OC)s1 | 11 |  | 0.13 µM [rising, full curve, poor fit]
44 | O=C1CC(=O)NC(SCC(=O)Nc2ccccc2[N+](=O)[O-])=N1 | 10.9 |  | 29.1 µM [falling, partial curve, poor fit]
45 | Nn1cc(-c2ccccc2)nc1SCC(=O)Nc1cccc(S(N)(=O)=O)c1 |  |  | 2.06 µM [rising, partial curve]
46 | COc1ccc(CN(C)CC(=O)Nc2sc3c(c2C#N)CCC3)cc1OC | 20.4 | 0.259 µM [rising, full curve, poor fit] | 18.4 µM [rising, partial curve]
47 | O=C(CN1CCN(c2ncccn2)CC1)NCc1ccccc1 | 12.5 | 6.51 µM [rising, single point] | 
48 | CN(N=Nc1ccc([N+](=O)[O-])cc1)c1ccccc1 | 32.6 | 5.17 µM [rising, full curve, poor fit] | 8.2 µM [rising, partial curve]
49 | CCN1CCN(C(c2cc3cccc(C)c3[nH]c2=O)c2nnnn2Cc2ccccc2)CC1 (stereo not given) | -10.8 | 0.00461 µM [falling, full curve, poor fit] | 32.6 µM [rising, single point]
50 | CCOc1ccc(C(=S)NC2CCCCC2)cc1OC | -16.9 |  | 
51 | Cc1cc(C)c[n+](-c2nc([O-])sc2C=O)c1 | -5.5 |  | 2.91 µM [falling, partial curve, poor fit]
52 | COc1ccc(CNc2nc3c(c(=O)n(Cc4ccc(Cl)cc4)c(=O)n3C)n2C)cc1 | -29.6 |  | 1.03 µM [rising, partial curve, poor fit]
53 | O=C1CCC(=O)N1CC1CC2CCC1C2 (stereo not given) | 10.5 |  | 25.9 µM [falling, single point]
54 | COc1ccc(CN2CCNC(=O)C2CC(=O)NCC2CCOCC2)c(C)c1C (stereo not given) | -1.29 |  | 0.259 µM [rising, full curve, poor fit]
55 | CC(C)(C)C(=O)NC(=S)N1CCCC1 | -24.9 |  | 2.06 µM [falling, partial curve]
56 | COc1ccc(C(=O)N2CCc3ccccc32)cc1S(=O)(=O)N1CCOCC1 | 13.4 |  | 
57 | CCN(CC)CCC#CC(O)(c1ccccc1)C1CCCCC1 (stereo not given) | -11.3 |  | 
58 | Cc1ccc(C)c(Cn2nc3c4ccccc4n(Cc4ccccc4)cc-3c2=O)c1 | 125 | 16.4 µM [rising, partial curve] | 
59 | Cc1cc(-c2n[nH]c(=S)n2-c2ccccc2)nn1C | 10.1 |  | 1.46 µM [rising, full curve, poor fit]
